Values from PubChem BioAssay AID1159578 (Peter MacCallum Cancer Centre, 2015).
Aim: 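Genome-wide hunt for genes controlling movement of lymphatic endothelial cells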 (primary screen). System: human lymphatic endothelial cells. Reagent: siRNA pool against human genes, 40 nM. Timing: 48 h after transfection. Read-out: 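High-content imaging of dye-stained cells in a scratch assay measures filled wound area and nuclei per well; duplicate means given as ratio to mock and robust z-score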. Reading the numbers: migration robust z-score: higher = faster migration into the scratch; nuclei per well: higher = more cells in the well. Active means: 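Pools averaging fewer than 3300 nuclei are never called; remaining pools count as changed when migration robust z lies outside -2 to 2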. Calls: active = migration changed; inactive = no migration change, or too few cells.
In all, the deposit lists about 18,000 reagents; this is a part drawn at random. In the full data, about 1,030 (5.7%) are marked active. 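Inactive calls also include pools with fewer than 3300 nuclei, whose migration was not assessed.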 Raw values vary from plate to plate and are shown uncorrected. Unmarked entries are inactive. Not all columns of the deposit are shown.

TMEM255A (GeneID 55026) [SID255358358] → migration robust z-score = -2.73 (active); migration class with cell-count check = migration z below -2; enough cells; nuclei per well, duplicate mean = 5991
PDP1 (GeneID 54704) [SID255358129] → migration robust z-score = 0.08; migration class with cell-count check = migration z between -2 and 2; enough cells; nuclei per well, duplicate mean = 5210
HIRA (GeneID 7290) [SID255353008] → migration robust z-score = 0.08; migration class with cell-count check = migration z between -2 and 2; enough cells; nuclei per well, duplicate mean = 6136
DHX33 (GeneID 56919) [SID255359166] → migration robust z-score = -1.01; migration class with cell-count check = migration z between -2 and 2; enough cells; nuclei per well, duplicate mean = 5538
AKT1S1 (GeneID 84335) [SID255361344] → migration robust z-score = -0.54; migration class with cell-count check = migration z between -2 and 2; enough cells; nuclei per well, duplicate mean = 6558
ZMAT3 (GeneID 64393) [SID255359911] → migration robust z-score = 0.26; migration class with cell-count check = migration z between -2 and 2; enough cells; nuclei per well, duplicate mean = 5928
PRX (GeneID 57716) [SID255359571] → migration robust z-score = -1.33; migration class with cell-count check = migration z between -2 and 2; enough cells; nuclei per well, duplicate mean = 4388
ANAPC15 (GeneID 25906) [SID255356543] → migration robust z-score = -0.64; migration class with cell-count check = migration z between -2 and 2; enough cells; nuclei per well, duplicate mean = 6098
PRDM13 (GeneID 59336) [SID255359683] → migration robust z-score = -2.5; migration class with cell-count check = under 3300 nuclei; migration not judged; nuclei per well, duplicate mean = 2627

Limited to “migration class with cell-count check” (2 entries from above):
TMEM255A (GeneID 55026) [SID255358358] = migration z below -2; enough cells (active)
PDP1 (GeneID 54704) [SID255358129] = migration z between -2 and 2; enough cells

Additional entries follow.
ADH1C (GeneID 126) [SID255348194] → migration robust z-score = -2.13 (active); migration class with cell-count check = migration z below -2; enough cells; nuclei per well, duplicate mean = 3420
REC114 (GeneID 283677) [SID255364700] → migration robust z-score = -0.33; migration class with cell-count check = migration z between -2 and 2; enough cells; nuclei per well, duplicate mean = 6292
ZNF177 (GeneID 7730) [SID255353258] → migration robust z-score = -0.04; migration class with cell-count check = migration z between -2 and 2; enough cells; nuclei per well, duplicate mean = 6422
BUD23 (GeneID 114049) [SID255362212] → migration robust z-score = -0.6; migration class with cell-count check = migration z between -2 and 2; enough cells; nuclei per well, duplicate mean = 4778
MAP1LC3A (GeneID 84557) [SID255361411] → migration robust z-score = -1.62; migration class with cell-count check = migration z between -2 and 2; enough cells; nuclei per well, duplicate mean = 3680
SOHLH1 (GeneID 402381) [SID255365819] → migration robust z-score = -0.28; migration class with cell-count check = migration z between -2 and 2; enough cells; nuclei per well, duplicate mean = 6406
MEDAG (GeneID 84935) [SID255361590] → migration robust z-score = -0.18; migration class with cell-count check = migration z between -2 and 2; enough cells; nuclei per well, duplicate mean = 5428
VEGFA (GeneID 7422) [SID255353102] → migration robust z-score = -0.97; migration class with cell-count check = migration z between -2 and 2; enough cells; nuclei per well, duplicate mean = 6480
TAS2R7 (GeneID 50837) [SID255357372] → migration robust z-score = -1.57; migration class with cell-count check = migration z between -2 and 2; enough cells; nuclei per well, duplicate mean = 5615
GCAT (GeneID 23464) [SID255356258] → migration robust z-score = -0.68; migration class with cell-count check = migration z between -2 and 2; enough cells; nuclei per well, duplicate mean = 4220
MORN4 (GeneID 118812) [SID255362455] → migration robust z-score = -1.15; migration class with cell-count check = migration z between -2 and 2; enough cells; nuclei per well, duplicate mean = 5036
EIF4B (GeneID 1975) [SID255349468] → migration robust z-score = 2.81 (active); migration class with cell-count check = migration z above 2; enough cells; nuclei per well, duplicate mean = 5757
